This experiment deals with Carboxypeptidase A. Put plainly: TAP-tag purification from FDCP-1 lysate, identification of prey proteins.

These are yes or no findings as the source states them, for the method shown. Where a sequence is shown, tags or fusion partners need not be part of it.

B1: TAP-tagged latexin (TAP-m(ouse)latexin) (protein, mouse, UniProt P70202 1-222, looked up, not shown: large carriers)
chain: MEIPPTHYAASRAASVAENCINYQQGTPHKLFLVQTVQQASKEDIPGRGHKYHLKFSVEEIIQKQVTVNCTAEVLYPQMGQGSAPEVNFTFEGEIGKNPDEEDNTFYQSLMSLKRPLEAQDIPDNFGNVSPQMKPVQHLAWVACGYVMWQNSTEDTWYKMLKIQTVKQVQRNDDFIELDYTILLHDIASQEIIPWQMQVLWHPQYGTKVKHNSRLPKEGQAE
Take B1: the binding result is given as “no binding”.

(Values after US20100183585A1, “METHODS AND COMPOSITIONS FOR TREATING TUMORS AND METASTASES THROUGH THE MODULATION OF LATEXIN” (University of Kentucky Research Foundation, priority 2008, published 2010).)
